Measurements reported in ChEMBL document CHEMBL1134401, “Property-based design: optimization of drug absorption and pharmacokinetics” (J Med Chem, 2001).

Assay: Partition coefficient (logD)
Conditions: octanol/water

COC(=O)C1=C(C)NC(C)=C(C(=O)OC)C1c1ccccc1[N+](=O)[O-] [NIFEDIPINE]
logD: 3.2
